No constants are given. Whether binding was seen depends on the method and setting. Binding seen in cells or lysates may run through a third protein. For some of these results: A result given as binding can be weak or reduced; the word gives no strength. For some of these results: Where a sequence is shown, tags or fusion partners need not be part of it.
What was measured:
[1] = molecular target: T1, SRK2D/SnRK2.2-mCherry (Arabidopsis thaliana) (UniProt Q39192); assay: co-IP; total proteins from transgenic Arabidopsis co-expressing RAF18-GFP and mCherry fusions, untreated or 0.8 M mannitol for 10 min; precipitated with anti-mCherry (Anti-RFP mAb-Magnetic Beads); blots with anti-GFP or anti-mCherry
T1 sequence: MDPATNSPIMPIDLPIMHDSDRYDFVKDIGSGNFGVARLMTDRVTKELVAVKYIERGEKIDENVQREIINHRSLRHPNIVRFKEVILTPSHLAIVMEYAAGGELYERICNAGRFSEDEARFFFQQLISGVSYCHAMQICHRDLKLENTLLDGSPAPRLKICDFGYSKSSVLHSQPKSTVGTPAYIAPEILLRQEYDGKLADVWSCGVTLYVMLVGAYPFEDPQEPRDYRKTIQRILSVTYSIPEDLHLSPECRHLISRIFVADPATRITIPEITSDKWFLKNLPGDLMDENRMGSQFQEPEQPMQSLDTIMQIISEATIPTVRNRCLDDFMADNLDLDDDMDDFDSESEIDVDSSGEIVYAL

[2] = molecular target: T2, SRK2G-mCherry (Arabidopsis thaliana) (UniProt P43292); assay: as above
T2 sequence: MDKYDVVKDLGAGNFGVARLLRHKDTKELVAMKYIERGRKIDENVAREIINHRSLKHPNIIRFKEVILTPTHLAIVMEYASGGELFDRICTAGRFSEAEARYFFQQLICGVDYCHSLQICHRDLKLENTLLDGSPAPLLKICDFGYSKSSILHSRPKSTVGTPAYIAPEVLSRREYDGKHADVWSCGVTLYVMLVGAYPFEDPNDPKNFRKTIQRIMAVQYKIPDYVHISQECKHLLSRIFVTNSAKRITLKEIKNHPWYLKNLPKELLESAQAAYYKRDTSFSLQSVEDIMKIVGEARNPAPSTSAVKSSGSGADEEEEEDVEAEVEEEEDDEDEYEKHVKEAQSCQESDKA

[3] = molecular target: T3, SRK2A-mCherry (Arabidopsis thaliana) (UniProt P43291); assay: as above
T3 sequence: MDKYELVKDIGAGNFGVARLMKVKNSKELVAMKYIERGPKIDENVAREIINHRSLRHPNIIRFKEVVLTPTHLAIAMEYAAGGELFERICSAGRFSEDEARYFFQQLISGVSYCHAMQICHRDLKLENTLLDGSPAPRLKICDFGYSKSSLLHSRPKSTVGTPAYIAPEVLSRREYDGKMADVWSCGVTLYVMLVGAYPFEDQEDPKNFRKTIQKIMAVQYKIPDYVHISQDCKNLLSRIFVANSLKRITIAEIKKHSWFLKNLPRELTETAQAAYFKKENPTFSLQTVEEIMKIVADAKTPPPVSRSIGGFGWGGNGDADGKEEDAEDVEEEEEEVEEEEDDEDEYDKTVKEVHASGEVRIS

[4] = molecular target: T4, SRK2G-VenusN (Arabidopsis thaliana) (UniProt P43292); assay: split reporter; BiFC in N. benthamiana leaves; VenusN and SCFP3AC fusions; leaves treated with water or 500 mM mannitol for 5 h; confocal microscopy
T4 sequence: T2 sequence

[5] = molecular target: T5, SRK2A-VenusN (Arabidopsis thaliana) (UniProt P43291); assay: as above
T5 sequence: T3 sequence

[6] = molecular target: T6, SRK2A-cLUC (Arabidopsis thaliana) (UniProt P43291); assay: split reporter; split-luciferase complementation in infiltrated N. benthamiana leaves; nLUC and cLUC fusions transiently expressed; luciferin infiltrated, luminescence imaged
T6 sequence: T3 sequence

[7] = molecular target: T7, SRK2G-cLUC (Arabidopsis thaliana) (UniProt P43292); assay: as above
T7 sequence: T2 sequence

RAF18-GFP (Arabidopsis thaliana) was tested, and the binding [1] was “no binding”, the binding [2] was “binds” and the binding [3] was “binds”.
For RAF18-SCFP3AC (Arabidopsis thaliana), the binding [4] was “binds” and the binding [5] was “binds”.
For RAF18-nLUC (Arabidopsis thaliana), the binding [6] was “binds” and the binding [7] was “binds”.
